Reference: article PMC11900807, “Accelerating Ligand Discovery for Insect Odorant Receptors” (International Journal of Biological Sciences, 2025)

What was measured:
SlitOR25 = tested on: T1, SlitOR25; experiment: single-sensillum recording of Drosophila ab3A neurons, dose-response; format: cell-based, Spodoptera littoralis; conditions: agonist; odorant puff, 500 ms; doses 1 ng to 100 µg; n = 7
T1 construct: gene OR25; full-length UAS-SlitOR25 transgene in Drosophila melanogaster ab3A olfactory neurons in place of OR22a (Or22ab-GAL4); complex with endogenous Drosophila Orco; with Odorant receptor coreceptor (Drosophila melanogaster, endogenous in ab3A neurons)

SlitOR31 = tested on: T2, SlitOR31; experiment: as above; format: cell-based, Spodoptera littoralis; conditions: agonist; odorant puff, 500 ms; doses 1 ng to 100 µg; n = 7
T2 construct: gene OR31; full-length UAS-SlitOR31 transgene in Drosophila melanogaster ab3A olfactory neurons in place of OR22a (Or22ab-GAL4); complex with endogenous Drosophila Orco; with Odorant receptor coreceptor (Drosophila melanogaster, endogenous in ab3A neurons)

| SMILES | lowest dose with significant activation (SlitOR25) | lowest dose with significant activation (SlitOR31) |
| --- | --- | --- |
| O=C(O)CCc1ccc(O)c(O)c1 [compound 10, 3-(3,4-dihydroxyphenyl)propanoic acid] | 100 µg on filter paper |  |
| O=COCc1ccccc1 [compound 16, benzyl formate] | 10 µg on filter paper |  |
| CCCc1ccc(O)c(OC)c1 [compound 23, 2-methoxy-4-propylphenol] |  | 10 µg on filter paper |
| C=CCc1ccc(O)c(OC)c1 [eugenol] |  | 1 µg on filter paper |

Where a name gives a salt, the structure may show the parent alone.
